pIC50: −log10 of the molar value. Some of these results come from one statement about several compounds together.
Columns and labels:
[1] = target: human form of induced nitric oxide synthase (Homo sapiens, UniProt P35228); test: Screen 2: inhibition of human induced nitric oxide synthase, l-[3H]-arginine to l-citrulline, lysate of induced DLD1 cells; format: biochemical; details: lysate of DLD1 cells induced with IL-1β and IFN-γ; preincubated 1 hour at 37° C., then 1 hour at 37° C.; read-out: IC50 (concentration of drug substance which gives 50% enzyme inhibition)
[2] = target: inducible isoform of the enzyme nitric oxide synthase (iNOS) from murine macrophage cell line J774A-1 (Mus musculus, UniProt P29477); details: read-out: IC50 (concentration of drug substance which gives 50% enzyme inhibition); lysate of J774A-1 cells induced with LPS and IFNg; 1 hour at room temperature

pIC50 [1]	pIC50 [2]	SMILES
> 4.60	> 4.60	NC1=N[C@@]2(CCN3C(=O)c4ccncc4[C@@H]3C2)Nc2cccc(F)c21 (relative stereo) [Example 28, (±)-(R*S*)-4'-Amino-5'-fluoro-7,8,10,10a-tetrahydrospiro[pyrido[3,4-a]indolizine-9,2'(1'H)-quinazoline]-5-one]
> 4.60	> 4.60	NC1=N[C@@]2(CCN3C(=O)c4c(ccc5ccccc45)[C@H]3C2)Nc2cccc(F)c21 (relative stereo) [Example 29, (±)-(R*R*)-4'-Amino-5'-fluoro-6b,7,9,10-tetrahydrospiro[naphtho[2,1-a]indolizine-8,2'(1'H)-quinazoline]-12-one]
> 4.60	> 4.60	NC1=N[C@@]2(CCN3C(=O)c4c(ccc5ccccc45)[C@@H]3C2)Nc2cccc(F)c21 (relative stereo) [Example 30, (±)-(R*S*)-4'-Amino-5'-fluoro-6b,7,9,10-tetrahydrospiro[naphtho[2,1-a]indolizine-8,2'(1'H)-quinazoline]-12-one]
